# Measured values: patent CN113912729A
# Results are given in words; binding and its absence hold for the method and conditions named. Some entries that bind do so weakly or less than the wild type.
# B1: 单域抗体1A7 (VHH)
# VHH: ESGGGSVQAGGSLRLSCAASGYIYSRNCVGWFRQAPGKEREGIAALYTAGGYTYYSASVKGRFTISQDNAKNTVYLQMNSLKPEDTAMYYCAAARPSNSLTCGIATITTDDVWGQGTQVTVSS
# B2: 单域抗体1B5 (VHH)
# VHH: ESGGGSVQAGGSLRLSCAASGYTYSGICMGWFRQAPGKEREGVAAIYTNGEYTYYADSVKGRFTISQDNAKNTVYLQMNSLKPEDTAMYYCAADRNTCGLRGDFYNYWGQGTQVTVSS
# B3: 单域抗体3A10 (VHH)
# VHH: ESGGGSVQTGGSLRLSCAASGYTYSSYCMAWFRQAPGKEREGVAALDSDGSTTYADSVKGRFTVSKDNAKNTLYLQMNSLKPEDTAMYYCAADLTCYCSDGYCYNGDEYNYWGQGTQVTVSS
# B4: 单域抗体3B1 (VHH)
# VHH: ESGGGSVQAGGSLRLSCVASGVTFSRSCIGWFRQIPGKEREGVAVVYTGGRSIDYSAYVDSVKGRFTISHDNAWNTVYLQMNSLKPEDTAMYYCAADFLLQEPCTVLSSRGFKFWGQGTQVTVSS
# B5: 单域抗体2F1 (VHH)
# VHH: ESGGGSVQSGGSLRLSCAASGYTFRRYCMGWFRQAPGKEREGVAVLYTGVDITYYADSVKGRFTISQDNAKKTLYLQMNSLKPEDTALYYCAADSGPLCGLGIQFGYWGQGTQVTVSS
# B6: 单域抗体4A1 (VHH)
# VHH: ESGGGSVQAGGSLRVSCAASGYTYSSYCMGWFRQAPGKEREGVASIDSRGSTTYADSLKGRFTISKDNAKNTLYLQMNNLKPEDTAKYYCAAGDGYGLEHICIPHYYAMNYWGEGTQVTVSS
# B7: 单域抗体2C2 (VHH)
# VHH: ESGGGSVQAGGSLRLSCVVSGNMYRRNCIGWFRQAPGKEREGVAAIYTAGGYSYYGDSVKGRFTISQDNPKNTVYLQMNNLKPEDTAMYYCATDGRDGDLCAARSDFRYWGQGTQVTVSS
# B8: 单域抗体2B4 (VHH)
# VHH: ESGGGSVQAGGSLRLSCTASGFTFGDADMGWYRQAPGNECELVSSLGDNGSTYYADSVKGRFTISQDNAKNTVYLQMNSLKPEDTAVYYCAAERLWTASTVVPDTPCLDEIEDFGYWGRGTQVTVSS
# B9: 单域抗体3C5 (VHH)
# VHH: ESGGGSAQAGGSLRLSCTASGSGYFYSRLCMGWFRQAPGTGREAVATSYPGIGSTYYADSVKGRFTISQDNAKNTMYLQMNSLKPEDTAMYYCAADATWNTCGITKTTYAYWGQGTQVTVSS
# B10: 单域抗体1A10 (VHH)
# VHH: ESGGGSVQPGGSLRLSCAASGATFINWSMGWFRQAPGKEREVVAAIESGGSPTYADSVKDRFTLSTDVAKNILYLQMNSLKPADTAMYYCAAKKVWAREFAYWGQGTQVTVSS
# B11: 单域抗体2F9 (VHH)
# VHH: ESGGGSVQAGGSLRLSCTASGITYSRNCLGWFRQAPGKEREWVATIYTSTGTTYFDDSVKGRFTISQDNAKNTLYLQMNSLKPEDTAMYYCAAAVSGWSVCSRSTKYNYWGHGTQVTVSS
# B12: 单域抗体3C8 (VHH)
# VHH: ESGGGSVQAGGSLRLSCAASGYTYSRYCMGWFRQTPGKGREGVASINSDGTTIYGNFVKGRFTISEDNAKNTLYLQMNSLKPEDTAMYYCAARVDSTCAPMPSWFTYWGQGTQVTVSS
# B13: 单域抗体1B2 (VHH)
# VHH: ESGGGSVQAGGSLRLSCATSGVTYRRTCMGWFRQAPGKEREGVAAIYTSGGFTFYADSVKGRFTISQDNAKNTLYLQMNTLKPEDTGIYYCAAEAGDECSASSVFRSWGQGTQVTVSS
# B14: 单域抗体1A9 (VHH)
# VHH: ESGGGSVQAGGSLRLSCAASGYTYSTYCMAWFRQALGKEREGVAGIDSDGSTTYADSVKGRFTISKDNAKDTLYLQMDSLKPEDTAMYYCAALSPRCDFDRSSRVTNWGQGTQVTVSS
# B15: 单域抗体2F4 (VHH)
# VHH: ESGGGSVQAGGSLRLSCAASGYTINYRMGWFRQAPGKEREGVAMASAISEDYADSVKGRFSISRDSAKNTLYLQMNSLKPEDTGMYYCAAGRVWGRLWNPDDYNSWGQGTQVTVSS
# B16: 单域抗体4D2 (VHH)
# VHH: ESGGGSVQAGGSLRLSCAASGFTYRRACMGWFRQAPGKEREGVAAIYTSGGMTFYDASVRGRFTISQDNAKNTVYLQMNSLKPEDTATYYCAAGGGDYCATNARFFNYWGQGTQVTVSS
# B17: 单域抗体3B7 (VHH)
# VHH: ESGGGSVQAGGSLRLSCAASEYAYINYCMGWFRQVPGKEREGVAVICSGGGATYYTDSVKGRFTISQDGAKYTLYLQMNSLKPEDTAMYYCAAGRRPYYSGAYFRTADYNYWGQGTQVTVSS
# Target: 生物素标记的sST2蛋白(sST2-Biotin) (UniProt Q01638)
# Assay: ELISA of crude periplasmic extracts on sST2-Biotin captured by neutravidin; positive if OD450 more than 5x control
row,binding,Binder
1,binds,B1
2,binds,B2
3,binds,B3
4,binds,B4
5,binds,B5
6,binds,B6
7,binds,B7
8,binds,B8
9,binds,B9
10,binds,B10
11,binds,B11
12,binds,B12
13,binds,B13
14,binds,B14
15,binds,B15
16,binds,B16
17,binds,B17

# Target: 可溶性生长刺激表达基因2蛋白(sST2)标准样品 (UniProt Q01638)
# Assay: ELISA, sST2 coated at 100 ng/100 uL, purified VHH, HRP anti-HA detection, P/N of OD450
row,binding,Binder
1,binds,B1
2,binds,B2
3,binds,B3
4,binds,B4
5,binds,B5
6,binds,B6
7,binds,B7
8,binds,B8
9,binds,B9
10,binds,B10
11,binds,B11
12,binds,B12
13,binds,B13
14,binds,B14
15,binds,B15
16,binds,B16
17,binds,B17
